Record: PubChem BioAssay AID504774 (Drosophila RNAi Screening Center, 2011)
The screen tested about 23,000 reagents; shown is an unselected part of those with a known target gene and a result. 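Values are quantile-normalised luminescence on an arbitrary scale; higher means more cells surviving MMS.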 A plus sign joins genes that one reagent is predicted to hit.

Screen: 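Genes required for cells to withstand methyl methanesulphonate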 (primary screen)
Cell system: Drosophila Kc167 cells
Reagent: long dsRNA against Drosophila genes, about 0.25 µg dsRNA per well
Time to read-out: about 6 days: 3 days knock-down, then 3 days with or without MMS
Treatment: methyl methanesulphonate 0.004% (w/v) for 3 days after knock-down
Measurement: 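Viability in wells given MMS, read as ATP luminescence, normalised by quantiles plate by plate and averaged across replicates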
Scale: mean viability with MMS and viability with MMS: higher = more surviving cells after MMS

The opening 8 entries as a preview:
gene knocked down	DRSC id	mean viability with MMS	viability with MMS, replicate 1	viability with MMS, replicate 2
Snmp2 (Sensory neuron membrane protein 2)	DRSC10228	3.58e6	4.09e6	4.05e6
Snmp2 (Sensory neuron membrane protein 2)	DRSC10843	3.49e6	4.08e6	3.85e6
Doa (Darkener of apricot)	DRSC13892	3.44e6	3.98e6	3.81e6
Doa (Darkener of apricot)	DRSC13893	3.42e6	3.91e6	3.82e6
Doa (Darkener of apricot)	DRSC13895	3.48e6	3.89e6	4.01e6
Doa (Darkener of apricot)	DRSC13896	3.49e6	3.91e6	4.01e6
Doa (Darkener of apricot)	DRSC13897	3.45e6	3.88e6	3.93e6
Doa (Darkener of apricot)	DRSC16650	3.37e6	3.79e6	3.89e6

The list itself, repeating the preview:
gene knocked down	DRSC id	mean viability with MMS	viability with MMS, replicate 1	viability with MMS, replicate 2
Snmp2 (Sensory neuron membrane protein 2)	DRSC10228	3.58e6	4.09e6	4.05e6
Snmp2 (Sensory neuron membrane protein 2)	DRSC10843	3.49e6	4.08e6	3.85e6
Doa (Darkener of apricot)	DRSC13892	3.44e6	3.98e6	3.81e6
Doa (Darkener of apricot)	DRSC13893	3.42e6	3.91e6	3.82e6
Doa (Darkener of apricot)	DRSC13895	3.48e6	3.89e6	4.01e6
Doa (Darkener of apricot)	DRSC13896	3.49e6	3.91e6	4.01e6
Doa (Darkener of apricot)	DRSC13897	3.45e6	3.88e6	3.93e6
Doa (Darkener of apricot)	DRSC16650	3.37e6	3.79e6	3.89e6
Ttc7 (Tetratricopeptide repeat domain 7)	DRSC04836	3.57e6	3.94e6	4.03e6
Hexo1 (Hexosaminidase 1)	DRSC08663	3.42e6	3.87e6	3.89e6
CG13585	DRSC04221	3.51e6	4.03e6	3.93e6
Cyp313a2 (Cytochrome P450 313a2)	DRSC16625	3.64e6	4.11e6	4.07e6
CG30187	DRSC22461	3.56e6	4.10e6	3.95e6
f (forked)	DRSC19174	1.77e6	4.02e6	3.88e6
f (forked)	DRSC19516	3.26e6	3.61e6	3.65e6
f (forked)	DRSC20331	3.29e6	3.68e6	3.67e6
CG14642	DRSC12228	3.59e6	4.02e6	4.12e6
CG18180	DRSC10304	3.60e6	4.09e6	4.08e6
Sras (severas)	DRSC11287	3.56e6	4.04e6	4.04e6
Npc2g (Niemann-Pick type C-2g)	DRSC14296	3.66e6	4.11e6	4.18e6
brv2 (brivido-2)	DRSC10226	3.46e6	3.82e6	3.98e6
by (blistery)	DRSC16482	3.53e6	4.00e6	4.03e6
Elba3 (Early boundary activity 3)	DRSC00469	3.65e6	4.28e6	4.03e6
CG16903	DRSC18561	3.28e6	3.80e6	3.72e6
VhaPPA1-1 (Vacuolar H[+] ATPase PPA1 subunit 1)	DRSC16170	3.52e6	4.01e6	3.97e6
Cyt-b5 (Cytochrome b5)	DRSC07392	3.51e6	3.99e6	3.96e6
CG9068	DRSC07329	3.68e6	4.02e6	4.30e6
Opbp (Optix-binding protein)	DRSC04966	3.43e6	3.96e6	3.79e6
nmdyn-D6	DRSC20355	3.62e6	3.98e6	4.22e6
dl (dorsal)	DRSC03520	3.27e6	3.86e6	3.50e6
dl (dorsal)	DRSC03521	3.59e6	4.03e6	4.11e6
CG30391	DRSC21572	3.56e6	4.02e6	4.08e6
Sply (Sphingosine-1-phosphate lyase)	DRSC07299	2.07e6	4.29e6	4.11e6
Bub1 (Bub1 kinase)	DRSC02357	2.89e6	3.16e6	3.20e6
Bub1 (Bub1 kinase)	DRSC23158	3.45e6	3.82e6	4.02e6
CG30154	DRSC05889	3.49e6	3.96e6	3.97e6
CG31975 + ovm	DRSC00323	3.35e6	3.76e6	3.76e6
APP-BP1 (beta-Amyloid precursor protein binding protein 1)	DRSC10920	3.54e6	3.96e6	4.07e6
SPH93 (Serine protease homolog 93)	DRSC02978	3.61e6	4.16e6	4.02e6
Gbp2 (Growth-blocking peptide 2)	DRSC06069	3.58e6	4.07e6	4.06e6
mRpL40 (mitochondrial ribosomal protein L40)	DRSC15749	3.66e6	4.12e6	4.10e6
Arfip (Arfaptin)	DRSC15179	3.47e6	3.89e6	3.95e6
RpS10a (Ribosomal protein S10a)	DRSC14161	3.57e6	4.01e6	4.10e6
Nckx30C	DRSC02686	3.71e6	4.04e6	4.37e6
Nckx30C	DRSC02687	3.51e6	4.01e6	3.97e6
Nckx30C	DRSC02688	3.43e6	3.78e6	3.98e6
Nckx30C	DRSC02689	3.33e6	3.77e6	3.70e6
CG14354	DRSC14817	3.44e6	3.84e6	3.93e6
Shrm (Shroom)	DRSC06437	3.39e6	3.90e6	3.94e6
Shrm (Shroom)	DRSC06438	3.46e6	4.02e6	3.96e6
Shrm (Shroom)	DRSC07221	3.60e6	3.98e6	4.18e6
Shrm (Shroom)	DRSC23067	3.25e6	3.67e6	3.66e6
CG31782 (retired record)	DRSC01554	3.59e6	4.02e6	4.09e6
CG31782 (retired record)	DRSC01556	3.78e6	4.32e6	4.11e6
CG11149	DRSC02130	3.56e6	4.03e6	4.02e6
pdgy (pudgy)	DRSC19064	3.47e6	4.04e6	3.87e6
pdgy (pudgy)	DRSC19341	3.74e6	3.94e6	4.50e6
Rsph4a (Radial spoke head protein 4a)	DRSC04338	3.46e6	4.36e6	3.92e6
Saf6 (SAGA factor-like TAF6)	DRSC00633	3.54e6	3.84e6	4.17e6
14-3-3epsilon	DRSC16370	3.43e6	3.99e6	3.82e6
Ipk2 (Inositol phosphate kinase 2)	DRSC00357	3.62e6	3.99e6	4.24e6
Diedel3 (Diedel 3)	DRSC19544	3.54e6	4.01e6	4.02e6
br (broad)	DRSC17691	3.47e6	3.96e6	3.93e6
br (broad)	DRSC17789	3.61e6	4.13e6	4.06e6
br (broad)	DRSC18743	3.32e6	3.78e6	3.78e6
br (broad)	DRSC18744	3.26e6	3.74e6	3.75e6
JhI-26 (Juvenile hormone-inducible protein 26)	DRSC06851	3.48e6	3.90e6	3.98e6
EMC2B + EMC2A	DRSC15241	3.93e6	4.24e6	4.62e6
